Test results reported in PubChem BioAssay AID1671190 (National Center for Advancing Translational Sciences (NCATS), 2021).
The campaign covered roughly 580,000 compounds. About 6,100 (1.1%) were called active. Roughly 15% stayed inconclusive and do not appear here. Calls follow the shape of the dose curve; as a rule, active = well fitted inhibition curve with a large enough effect; inconclusive = small, poorly fitted or top-dose-only effect, or another doubt; inactive = no such curve, though single readings can be large or run the other way. The entries are a selection whose mix differs from that of the whole data set. Where no call is shown, the source filed none.

Sequences of proteins named here, by UniProt entry; tags and fusion partners are left off. A change or cut given only in a name is not applied to a line headed by its entry.
UniProt P18054: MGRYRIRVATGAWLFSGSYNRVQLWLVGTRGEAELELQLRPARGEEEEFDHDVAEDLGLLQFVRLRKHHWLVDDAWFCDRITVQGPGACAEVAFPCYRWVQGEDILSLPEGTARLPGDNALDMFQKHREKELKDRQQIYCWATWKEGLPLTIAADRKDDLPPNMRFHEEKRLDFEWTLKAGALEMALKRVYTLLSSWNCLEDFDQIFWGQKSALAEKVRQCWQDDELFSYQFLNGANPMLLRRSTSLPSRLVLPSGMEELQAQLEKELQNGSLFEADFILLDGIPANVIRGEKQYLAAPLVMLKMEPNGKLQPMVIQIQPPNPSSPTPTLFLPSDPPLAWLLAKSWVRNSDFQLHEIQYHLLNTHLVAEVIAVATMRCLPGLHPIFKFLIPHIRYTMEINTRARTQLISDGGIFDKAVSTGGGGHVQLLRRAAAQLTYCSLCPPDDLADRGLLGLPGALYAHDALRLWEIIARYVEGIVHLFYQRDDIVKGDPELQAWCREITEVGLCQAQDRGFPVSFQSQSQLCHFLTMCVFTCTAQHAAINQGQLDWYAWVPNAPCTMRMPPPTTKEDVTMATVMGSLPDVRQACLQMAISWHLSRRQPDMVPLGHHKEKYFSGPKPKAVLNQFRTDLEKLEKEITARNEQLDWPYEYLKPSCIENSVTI

Target: Polyunsaturated fatty acid lipoxygenase ALOX12 (Homo sapiens) (UniProt P18054)
Test: Primary qHTS assay for inhibitors of human arachidonate 12S-lipoxygenase (ALOX12): Round 2
Details: purified 12hLO, xylenol orange hydroperoxide absorbance; activity change, negative = inhibition: at 0.00344 µM (top of the series) unless noted
Text: Assay Provider: Theodore R. Holman Ph.D. University of California, Santa Cruz, California Human lipoxygenase 12hLO is a member of the closely related lipoxygenase family of enzymes which catalyze the site-specific oxidation of arachidonic acid to various hormone precursor molecules and as such is a candidate for drug development in a variety of disease areas, such as cancer and inflammation. Inhibition of 12hLO activity was screened by utilizing arachidonic acid as a substrate. The extent of hydroperoxide product formation was measured by a secondary chromogenic reaction in which xylenol orange (XO, Sigma-Aldrich, cat. number 39,818-7) reacts with the ferric ions produced from the reaction between the hydroperoxide and ferrous ions. The Fe (III)-XO complex is characterized with red-shifted absorbance at 560 nm. A purified preparation of human 12hLO was supplied by Dr. Holman laboratory, University of California, Santa Cruz.
PROTOCOL TABLE SEQUENCE No. (e.g., 1, 2, 3, etc.); […] (e.g., Cells, Incubation, Reagent, etc.); VALUE; DESCRIPTION 1; Enzyme; 3 uL; 150 nM 12hLO enzyme solution dispensed in 1536-well Greiner black, clear bottom plates. 2; Compound; 23 nL; compounds and controls were added. 3; Incubate; 15 min; room temperature. 4; Substrate; 1 uL; 40 uM arachidonic acid (final concentration). 5; Incubate; 30 min; room temperature. 6; Reagent; 4 uL; Fe-XO solution was added to each well. 7; Incubation; 30 min; room temperature 8; Detector; absorbance; Read 1 at 405 nm absorbance using ViewLux (Perkin-Elmer) CCD imager. 9; Detector; absorbance; Read 2 at 573 nm absorbance using ViewLux (Perkin-Elmer) CCD imager. NOTES (numbers refer to sequence above) 1; 150 nM 12hLO (final concentration) in buffer solution (25 mM Hepes, 0.01% Triton X-100, pH 7.0) was dispensed in columns 1, 2, 5-48. Column 1 is neutral (100% activity). Buffer only was dispensed in columns 3 and 4 as no enzyme negative controls. The plates were covered with metal lids with gas-exchange holes. 2; Compounds were pin transferred via a Kalypsys Pin Tool (Wako USA) in column 5-48. Control compound was transferred in column 2, titration of nordihydroguaiaretic acid (NDGA, Sigma-Aldrich, N5023) with top concentration of 20 mM in DMSO then 1:3 dilution in duplicate. Dilution factor of 23 nL into 4 uL final assay volume. 3; Covered assay plates were incubated for 15 min at room temperature. 4; Substrate was added to start the reaction; 40 uM arachidonic acid (Sigma-Aldrich, St. Louis, MO) was dispensed throughout the plate. 6; Chromogenic detection reagent solution (divalent iron/xylenol orange, Fe-XO) was added to each well: 200 uM xylenol orange, 300 uM ferrous ammonium sulfate prepared freshly in 50 mM sulfuric acid. 8, 9; Two absorbance readouts were obtained at 405 nm and at 573 nm using a ViewLux high-throughput CCD plate imager (Perkin-Elmer). The 573 to 405 (Read 2 / Read 1) absorbance ratio was used to compute reaction progress.
% is scaled to controls: 0 for no effect and ±100 for the full control effect; potency is read from the fitted curve at half-maximal effect.

Compound	activity change, negative = inhibition	Potency
O=P1(N(CCCl)CCCl)NCCCO1 (stereo not drawn)	-14.4%	
CC(C)(C)CC(C)(C)c1ccc(O)cc1	4.72%	
NC(=O)CS(=O)C(c1ccccc1)c1ccccc1 (stereo not drawn)	49.5%	
C#C[C@H]1CN2CC[C@H]1C[C@@H]2COC(=O)NCCC		active: 8.91 µM
O=C(NC(O)C(Cl)(Cl)Cl)NC(O)C(Cl)(Cl)Cl (stereo not drawn)	-2.83%	
CC(=O)NC1CCSC1=O (stereo not drawn)	-12.8%	
CCN(CC)CCN1C(=O)CN=C(c2ccccc2F)c2cc(Cl)ccc21	20.1%	
C[C@]12C/C(=C/O)C(=O)C[C@@H]1CC[C@@H]1[C@@H]2CC[C@@]2(C)[C@H]1CC[C@]2(C)O	11%	
CCC(=O)O[C@@H]1C=C2CCC3C(CCC4(C)C3CC[C@@H]4OC(=O)CC)C2CC1 (stereo partly drawn)	-22.5%	
CCOP(=S)(OCC)Oc1ccc2c(C)c(Cl)c(=O)oc2c1	1.66%	
CCOC(=O)C(c1c(O)c2ccccc2oc1=O)c1c(O)c2ccccc2oc1=O	25.7%	
NN=C(N)N	7.07%	
Fc1cc(Br)ccc1CBr	-17.1%	
Clc1ccc(C(c2ccc(Cl)cc2)C(Cl)(Cl)Cl)cc1	-9.09%	
COc1cc(N)c(Cl)cc1C(=O)NC1CN2CCC1CC2 (stereo not drawn)	22%	
C[C@]12CCC(=O)C=C1CC[C@@H]1[C@@H]2CC[C@]2(C)C(=O)CC[C@@H]12	4.24%	
NC(=O)OCCCc1ccccc1	12%	
O=C(CBr)Nc1ccc(Cl)cc1C(=O)c1ccccc1F	-43.2%	
CCN(Cc1ccc(Cl)nc1)/C(=C/[N+](=O)[O-])NC	-1.49%	
CN1CC[C@]23c4c5ccc(O)c4O[C@H]2[C@@H](O)CC[C@H]3[C@H]1C5	20.6% [at 0.00599 µM]	
CCC(=O)O[C@H]1CC[C@H]2[C@@H]3CCC4=CC(=O)CC[C@]4(C)[C@H]3CC[C@]12C	27.2%	
CO[C@]12CC[C@@]3(C[C@@H]1[C@](C)(O)C(C)(C)C)[C@@H]1Cc4ccc(O)c5c4[C@@]3(CCN1CC1CC1)[C@H]2O5	-14.8% [at 0.00599 µM]	
C[C@@H]1CN(C2CCC(C#N)(c3ccc(F)cc3)CC2)CC[C@]1(C(=O)O)c1ccccc1 (stereo partly drawn)	8.36%	
C[C@]12CC[C@H]3[C@@H](CCC4=CC(=O)CC[C@@H]43)[C@@H]1CC[C@@H]2OC(=O)CCC1CCCCC1	1.41%	
CCc1cc2c(s1)-n1c(C)nnc1CN=C2c1ccccc1Cl	-6.46%	
CC1OC(C)OC(C)O1 (stereo not drawn)	13.5%	
COP(=S)(OC)Oc1cc(Cl)c(Cl)cc1Cl	48.4%	

Compound	activity change, negative = inhibition	Potency
CCCCCCCCC(=O)NCc1ccc(O)c(OC)c1	-13%	
O=C(O)c1ccc(=O)[nH]c1	-23%	
C=CCC1([C@H](C)CCC)C(=O)NC(=O)NC1=O	23.8% [at 0.00599 µM]	
CC[N+]1(CC)CCC(OC(=O)C(O)(c2ccccc2)c2ccccc2)C1 (stereo not drawn)	4.12%	
O=C(Nc1ccc(Br)cc1)c1cc(Br)cc(Br)c1O	-4.41%	
O=C(O)C1=NOC2CN(Cc3cncs3)CC12 (stereo not drawn)		active: 12.6 µM
CCCCCCCCCCCC[N+](C)(C)CCOc1ccccc1	6.32%	
FC(F)(F)c1cccc(C2=CCN(CCc3ccc4ccccc4c3)CC2)c1	31%	
CC(=O)[O][Hg][c]1ccccc1	-13%	
Cc1cc2c(C(C)C)c(O)c(O)c(C=O)c2c(O)c1-c1c(C)cc2c(C(C)C)c(O)c(O)c(C=O)c2c1O	-12%	
CC(N)C(=O)OC(C)(C)Cc1ccc(Cl)cc1 (stereo not drawn)	7.21%	
COc1ccc(C(=O)c2c(C)n(CCN3CCOCC3)c3ccccc23)cc1	-0.299%	
CC(=O)OCC[N+](C)(C)C	9.95%	
C[C@]12CC[C@H]3[C@@H](CCC4=CC(=O)CC[C@@]43C)[C@@H]1CC[C@@H]2C(=O)O	20.1%	
CCN(CC)CCOC(=O)C(O)(c1ccccc1)c1ccccc1	15.6%	
CC(C)(C)OC(=O)c1ncn2c1[C@@H]1CCCN1C(=O)c1c(Br)cccc1-2	-13.8%	
OC(O)C(Cl)(Cl)Cl	-0.469%	
COCC(=O)N(c1c(C)cccc1C)C(C)C(=O)OC (stereo not drawn)	-48%	
CNCC(O)c1ccc(O)cc1 (stereo not drawn)	11.4%	
CC(C)NCC(O)c1ccc(N)c(C#N)c1 (stereo not drawn)	-6.11%	
CCC(OC(C)=O)C(CC(C)NC)(c1ccccc1)c1ccccc1 (stereo not drawn)	-22.7% [at 0.00599 µM]	
O=c1[nH]c2cc(Cl)ccc2n1C1CCNCC1	1.45%	
C[C@]12CCC(=O)C=C1CC[C@@H]1[C@@H]2CC[C@@]2(C)[C@H]1CC[C@]2(C)O	16.2%	
CC[C@]1(O)CC[C@H]2[C@@H]3CCC4=CCCC[C@@H]4[C@H]3CC[C@@]21C	-6.64%	
O=c1c(C2CC(c3ccc(-c4ccc(Br)cc4)cc3)Cc3ccccc32)c(O)sc2ccccc12 (stereo not drawn)	27%	
COC(=O)[C@@H](N)CCCN/C(N)=N/[N+](=O)[O-]	11.4%	

Quoted from the listing:
OC(O)C(Cl)(Cl)Cl | activity change, negative = inhibition: -0.469%
CC(N)C(=O)OC(C)(C)Cc1ccc(Cl)cc1 (stereo not drawn) | activity change, negative = inhibition: 7.21%
